Consider one molecule from paper doi:10.1101/2025.09.30.679260.

Chains of the proteins cited; added tags and fusions are not shown.
UniProt Q13148: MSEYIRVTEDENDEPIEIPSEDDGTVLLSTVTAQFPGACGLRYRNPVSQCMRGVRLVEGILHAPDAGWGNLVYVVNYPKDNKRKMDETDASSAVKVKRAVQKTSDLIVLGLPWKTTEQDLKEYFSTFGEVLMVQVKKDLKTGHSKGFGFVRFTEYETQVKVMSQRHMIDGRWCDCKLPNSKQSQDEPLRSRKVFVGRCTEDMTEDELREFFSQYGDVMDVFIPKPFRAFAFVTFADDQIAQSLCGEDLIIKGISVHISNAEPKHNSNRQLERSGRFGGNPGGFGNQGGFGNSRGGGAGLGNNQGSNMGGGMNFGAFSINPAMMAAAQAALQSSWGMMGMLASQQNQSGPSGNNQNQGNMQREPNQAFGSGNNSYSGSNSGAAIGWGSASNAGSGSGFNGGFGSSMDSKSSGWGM

Results are given in words; binding and its absence hold for the method and conditions named. Binding seen in cells or lysates may run through a third protein. Some results given as binding are weak or reduced against the parent protein; the word gives no strength.

The experiment deals with TDP-43 (human (endogenous in iPSC-derived neurons)) (UniProt Q13148). Briefly: co-IP.

B1: ZCCHC8 (protein, UniProt Q6NZY4 1-707)
chain: MAAEVYFGDLELFEPFDHPEESIPKPVHTRFKDDDGDEEDENGVGDAELRERLRQCEETIEQLRAENQELKRKLNILTRPSGILVNDTKLDGPILQILFMNNAISKQYHQEIEEFVSNLVKRFEEQQKNDVEKTSFNLLPQPSSIVLEEDHKVEESCAIKNNKEAFSVVGSVLYFTNFCLDKLGQPLLNENPQLSEGWEIPKYHQVFSHIVSLEGQEIQVKAKRPKPHCFNCGSEEHQMKDCPMPRNAARISEKRKEYMDACGEANNQNFQQRYHAEEVEERFGRFKPGVISEELQDALGVTDKSLPPFIYRMRQLGYPPGWLKEAELENSGLALYDGKDGTDGETEVGEIQQNKSVTYDLSKLVNYPGFNISTPRGIPDEWRIFGSIPMQACQQKDVFANYLTSNFQAPGVKSGNKRSSSHSSPGSPKKQKNESNSAGSPADMELDSDMEVPHGSQSSESFQFQPPLPPDTPPLPRGTPPPVFTPPLPKGTPPLTPSDSPQTRTASGAVDEDALTLEELEEQQRRIWAALEQAESVNSDSDVPVDTPLTGNSVASSPCPNELDLPVPEGKTSEKQTLDEPEVPEIFTKKSEAGHASSPDSEVTSLCQKEKAELAPVNTEGALLDNGSVVPNCDISNGGSQKLFPADTSPSTATKIHSPIPDMSKFATGITPFEFENMAESTGMYLRIRSLLKNSPRNQQKNKKASE
B1: the binding result is “binds”.
